PubChem BioAssay AID1259308 | NCATS, 2017
Assay: 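Knock-downs that increase output of a recombinant reporter protein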 (primary screen). System: human HEK293 embryonic kidney cells stably expressing firefly luciferase (HEK-CMV-Luc2-Hygro). Reagent: single siRNA against human genes, 0.8 pmol siRNA per well. Time to read-out: 72 h. Measurement: 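Reporter luminescence and viable-cell signal on separate replicate plates, given as percent of non-targeting control and median/MAD z-scores, plus per-cell luciferase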. Scale: total luciferase, z-score: higher = more reporter protein produced. Call rule: 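Active when the median/MAD z-score for overall luciferase is greater than 3; a gene was taken forward for validation with new siRNAs if at least two of its three siRNAs passed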. Calls: active = raised luciferase; inactive = no rise.
In all, the deposit lists about 59,000 reagents; below is a part drawn at random. About 1,510 of all reagents (2.6%) were called active. 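Calls use total luciferase alone and ignore viability, so some active siRNAs may act by altering cell number.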 Entries without a mark were called inactive. The numbers tell different reagents against one gene apart. Further read-outs or replicates are left out here.

RNF225 (ring finger protein 225) #1: total luciferase, z-score = -2.02
RNF225 (ring finger protein 225) #2: total luciferase, z-score = 0.0253
RNF225 (ring finger protein 225) #3: total luciferase, z-score = -1.13
TNNI1 (troponin I1, slow skeletal type) #1: total luciferase, z-score = 1.23
TNNI1 (troponin I1, slow skeletal type) #2: total luciferase, z-score = -0.582
TNNI1 (troponin I1, slow skeletal type) #3: total luciferase, z-score = -0.342

Already shown: 2 of the entries above.
RNF225 (ring finger protein 225) #2: total luciferase, z-score = 0.0253
RNF225 (ring finger protein 225) #3: total luciferase, z-score = -1.13

Continued.
VPS41 (VPS41 subunit of HOPS complex) #1: total luciferase, z-score = -0.00798
VPS41 (VPS41 subunit of HOPS complex) #2: total luciferase, z-score = 0.0844
VPS41 (VPS41 subunit of HOPS complex) #3: total luciferase, z-score = -0.317
PER2 (period circadian regulator 2) #1: total luciferase, z-score = 0.0434
PER2 (period circadian regulator 2) #2: total luciferase, z-score = -0.0355
PER2 (period circadian regulator 2) #3: total luciferase, z-score = 3.29 (active)
